In patent US11795488B2, “Methods for enzymatic peptide ligation” (NANYANG TECHNOLOGICAL UNIVERSITY, priority 2016, dated 2023):
The name of at least one read-out is uncertain.

System: peptide substrate "GLPVSTKPVATRNGL" (SEQ ID NO: 18)
Assay: Peptide cyclization assay, kinetic analysis (HPLC/MS)
Type: biochemical
Settings: cyclization of GLPVSTKPVATRNGL
Method: Native and modified amino acids were purchased from Sigma-Aldrich (USA). All peptides used in this manuscript were synthesized in-house using the solid-phase method and HPLC purified. Cyclization assays were performed in 50-μl reaction mixtures containing 20 mM phosphate buffer, ligases (5 to 700 nM) and peptide substrates (10 to 300 μM). Each reaction was performed in triplicate at 37° C. and quenched by adding 5 μl of 1 M HCl solution. The peptides were separated by using a reversed-phase C18 analytical column (150×2.1 mm, Vydac) with a linear gradient from 10% to 50% acetonitrile over 15 min on a Nexera UHPLC system (Shimadzu). For kinetic analysis, the concentrations of WT OaAEP1, mutant OaAEP1, and butelase 1 were fixed at 700 nM, 50 nM, and 20 nM, respectively. The cyclization velocities were calculated by converting the HPLC-peak areas of remained linear precursors or the cyclized products into concentrations. The identity of each HPLC peak was analyzed by MALDI-TOF MS (ABI 4800 MALDI TOF/TOF). […] Comparison for the cyclization efficiency of various OaAEP1 mutants were performed in a volume of 20 μl of the reaction mixture and analyzed by MALDI-TOF MS after 10 mins or 1 hour ligation reaction.
The peptide cyclization activity of mature OaAEP1 was then analyzed using MS and the peptide substrate “[…]” (SEQ ID NO: 18) (FIG. 5A). […]

B1: Cys247Ala: OaAEP1 Cys247Ala (Quicklase), Asx-specific peptide ligase having the amino acid sequence of SEQ ID NO:1 (protein, listed as Ovaloparmena affinis)
chain: MVRYLAGAVLLLVVLSVAAAVSGARDGDYLHLPSEVSRFFRPQETNDDHGEDSVGTRWAVLIAGSKGYANYRHQAGVCHAYQILKRGGLKDENIVVFMYDDIAYNESNPRPGVIINSPHGSDVYAGVPKDYTGEEVNAKNFLAAILGNKSAITGGSGKVVDSGPNDHIFIYYTDHGAAGVIGMPSKPYLYADELNDALKKKHASGTYKSLVFYLEACESGSMFEGILPEDLNIYALTSTNTTESSWAYYCPAQENPPPPEYNVCLGDLFSVAWLEDSDVQNSWYETLNQQYHHVDKRISHASHATQYGNLKLGEEGLFVYMGSNPANDNYTSLDGNALTPSSIVVNQRDADLLHLWEKFRKAPEGSARKEEAQTQIFKAMSHRVHIDSSIKLIGKLLFGIEKCTEILNAVRPAGQPLVDDWACLRSLVGTFETHCGSLSEYGMRHTRTIANICNAGISEEQMAEAASQACASIP
  Kcat/Km relative to wt OaAEP1b: 160 times
